In article doi:10.1101/2025.03.24.644918 one finds binding data, which are given here for five substances.

The chains behind the UniProt entries cited, without tags or fusion partners. Where a name states a change or a piece, a line headed by the entry shows the natural chain unless it says otherwise.
UniProt O09037: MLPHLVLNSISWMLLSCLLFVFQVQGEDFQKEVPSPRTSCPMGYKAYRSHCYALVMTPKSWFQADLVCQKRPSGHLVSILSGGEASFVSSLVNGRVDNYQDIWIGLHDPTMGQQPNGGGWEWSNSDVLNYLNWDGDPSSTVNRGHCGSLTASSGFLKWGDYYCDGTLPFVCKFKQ
UniProt P35230: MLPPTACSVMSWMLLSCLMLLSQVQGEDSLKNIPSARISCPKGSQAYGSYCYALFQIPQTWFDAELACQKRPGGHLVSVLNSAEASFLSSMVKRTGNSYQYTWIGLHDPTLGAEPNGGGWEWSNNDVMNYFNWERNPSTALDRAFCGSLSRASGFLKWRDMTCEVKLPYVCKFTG
UniProt Q9QUS9: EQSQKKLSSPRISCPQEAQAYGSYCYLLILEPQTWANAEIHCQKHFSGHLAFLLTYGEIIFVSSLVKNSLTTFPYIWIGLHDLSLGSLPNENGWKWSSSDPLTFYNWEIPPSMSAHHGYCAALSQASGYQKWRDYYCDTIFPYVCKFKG
UniProt O09049: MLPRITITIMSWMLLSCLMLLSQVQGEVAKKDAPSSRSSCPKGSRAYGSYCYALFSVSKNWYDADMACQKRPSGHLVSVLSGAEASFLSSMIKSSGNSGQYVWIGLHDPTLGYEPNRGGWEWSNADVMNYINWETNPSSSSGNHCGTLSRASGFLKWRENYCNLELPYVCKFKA

Test [1] deals with T1, N-terminally myc-tagged full-length murine CCPG1 (mouse) (UniProt Q640L3).
T1 sequence: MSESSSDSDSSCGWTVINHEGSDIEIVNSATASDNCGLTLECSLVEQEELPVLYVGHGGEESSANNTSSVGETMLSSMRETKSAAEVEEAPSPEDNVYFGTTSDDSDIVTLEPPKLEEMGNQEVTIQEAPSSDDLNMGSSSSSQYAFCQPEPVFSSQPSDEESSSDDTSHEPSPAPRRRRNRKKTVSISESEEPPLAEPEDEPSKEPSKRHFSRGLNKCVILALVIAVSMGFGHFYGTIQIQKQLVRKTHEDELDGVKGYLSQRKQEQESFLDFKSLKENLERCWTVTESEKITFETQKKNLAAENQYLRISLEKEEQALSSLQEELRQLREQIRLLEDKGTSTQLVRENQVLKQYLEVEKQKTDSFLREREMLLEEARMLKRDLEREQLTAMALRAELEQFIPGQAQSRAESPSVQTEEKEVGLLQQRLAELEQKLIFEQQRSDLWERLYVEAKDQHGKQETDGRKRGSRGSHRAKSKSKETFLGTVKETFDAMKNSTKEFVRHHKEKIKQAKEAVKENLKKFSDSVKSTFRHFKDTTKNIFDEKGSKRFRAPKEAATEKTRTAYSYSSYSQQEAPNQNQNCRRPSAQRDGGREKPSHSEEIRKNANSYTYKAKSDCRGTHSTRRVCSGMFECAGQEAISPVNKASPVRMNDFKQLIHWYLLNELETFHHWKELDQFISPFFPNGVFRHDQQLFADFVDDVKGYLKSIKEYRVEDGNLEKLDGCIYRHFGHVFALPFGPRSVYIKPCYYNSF
As to the kind of experiment: co-IP.

Test [2] addresses T2, C-terminally V5-tagged CCPG1 (UniProt Q640L3).
T2 sequence: T1 sequence
As to the kind of experiment: co-IP.

Results are given in words; binding and its absence hold for the method and conditions named. Binding seen in cells or lysates may run through a third protein. Binding can be weak; no strength is given. Where a sequence is shown, tags or fusion partners need not be part of it.

For “GFP-REG3A (stably expressed in HEK293FT) (from UniProt O09037)”, in test [1], the binding entry is reported as “binds”.
Turning to “GFP-fused murine REG3A (in PDAC cells) (from UniProt O09037)”, the binding entry in test [2] is “binds”.
For the substance “GFP-fused murine REG3B (from UniProt P35230)”, the binding result in test [2] is “binds”.
In the case of “GFP-fused murine REG3D (from UniProt Q9QUS9)”, in test [2], the binding result was “binds”.
Consider “GFP-fused murine REG3G (from UniProt O09049)”, for which the binding entry in test [2] is given as “binds”.
